Source: patent publication US20250066425A1, “POLYPEPTIDE AND APPLICATION THEREOF IN PREPARATION OF ANTI-FIBROSIS DRUG” (priority 2022, published 2025)
At least one peptide structure holds a part that was inferred or is arguable (an end, a ring closure or a residue). Residues, ends and D or L forms follow the SMILES beside them.

Key:
[1] = tested on: aSMA, Periostin, Fibronectin and Collagen 1a1 expression; assay: Western blot of fibrosis marker and extracellular matrix proteins in TGFb-treated NRCF; format: cell-based, rat; details: 6 uM polypeptide + 10 ng/ml TGFb, 48 h, vs TGFb-only control
[2] = tested on: pulmonary fibrosis modeling mice (bleomycin); assay: pulmonary fibrosis modeling mice (intratracheal bleomycin) after tail vein injection; format: in vivo, C57 mice; details: 10 mg/kg tail vein every other day x7, 2 weeks, vs control polypeptide

With `CC(C)[C@H](NC(=O)[C@@H]1CCCN1C(=O)[C@H](Cc1c[nH]cn1)NC(=O)[C@H](CCCCN)NC(=O)[C@H](Cc1ccc(O)cc1)NC(=O)[C@H](CCC(N)=O)NC(=O)[C@H](CCCNC(=N)N)NC(=O)[C@H](CO)NC(=O)[C@H](Cc1c[nH]cn1)NC(=O)[C@H](Cc1ccccc1)NC(=O)[C@H](Cc1ccc(O)cc1)NC(=O)[C@H](CCC(N)=O)NC(=O)CNC(=O)[C@H](CCC(N)=O)NC(=O)[C@H](Cc1ccccc1)NC(=O)[C@H](CCCNC(=N)N)NC(=O)[C@H](CCCNC(=N)N)NC(=O)[C@H](CCCNC(=N)N)NC(=O)[C@H](CCC(N)=O)NC(=O)[C@H](CCCNC(=N)N)NC(=O)[C@H](CCCNC(=N)N)NC(=O)[C@H](CCCCN)NC(=O)[C@H](CCCCN)NC(=O)[C@@H](N)CCCNC(=N)N)C(=O)NCC(=O)N[C@@H](Cc1ccc(O)cc1)C(=O)N[C@@H](CCC(=O)O)C(=O)NCC(=O)N[C@@H](CCCCN)C(=O)O` [PAFRK29] (H-RKKRRQRRRFQGQYFHSRQYKHPVGYEGK-OH; N-terminus and C-terminus assumed) the “relative expression amount of Collagen 1a1” value [1] was “obviously decreased”, the “relative expression amount of Fibronectin” value [1] was “obviously decreased” and the “relative expression amount of Periostin” value [1] was “obviously decreased”. The “relative expression amount of aSMA” value [1] was “obviously decreased”, the “pulmonary fibrosis area (representative Masson collagen staining images)” value [2] was “smaller fibrosis area” and the “pulmonary fibrosis area proportion (percentage of Masson collagen staining area)” value [2] was “lower fibrosis area proportion”. For the same compound, the “pulmonary fibrosis consolidation range” value [2] was “smaller pulmonary fibrosis consolidation range”.
